{"sequences": {"note": "Amino acid sequences for entries named in this document (tags omitted). A change or cut given only in a name is not applied to a line headed by its entry. Residues count along the entry.", "UniProt P35913, residues 1-313": "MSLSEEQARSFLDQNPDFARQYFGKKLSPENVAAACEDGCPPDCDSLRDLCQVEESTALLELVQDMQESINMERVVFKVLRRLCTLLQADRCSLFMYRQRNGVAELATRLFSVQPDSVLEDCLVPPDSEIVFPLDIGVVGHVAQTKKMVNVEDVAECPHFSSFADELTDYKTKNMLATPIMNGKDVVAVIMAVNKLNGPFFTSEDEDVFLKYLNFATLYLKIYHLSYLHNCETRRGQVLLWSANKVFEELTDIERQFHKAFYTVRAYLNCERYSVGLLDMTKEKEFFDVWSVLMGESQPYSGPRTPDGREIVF"}, "source": "paper PMC3997432", "about": "“A Truncated Form of Rod Photoreceptor PDE6 β-Subunit Causes Autosomal Dominant Congenital Stationary Night Blindness by Interfering with the Inhibitory Activity of the γ-Subunit” (PLoS ONE, 2014)", "key": {"[1]": {"molecular_target": "T1, CysBC-Pγ24-45 (Cys-Pγ24-45 peptide labeled at the N-terminal Cys with 3-(bromoacetyl)-7-diethyl-aminocoumarin) (UniProt P04972)", "T1 sequence (peptide, N-terminal Cys labeled with 3-(bromoacetyl)-7-diethyl-aminocoumarin (BC))": "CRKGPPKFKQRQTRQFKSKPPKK", "assay": "other fluorescence titration; competition: excess of unlabeled CysPγ24-45 added to CysBC-Pγ24-45 and PDE6β1-313; data not shown; both purified"}, "[2]": {"molecular_target": "PDE6β1-313 (PDE6-specific N-terminal portion of the human rod cGMP phosphodiesterase type 6 β-subunit truncation mutant) (human) (UniProt P35913)", "assay": "other fluorescence titration; competition: excess of unlabeled CysPγ24-45 added to CysBC-Pγ24-45 and PDE6β1-313; data not shown; both purified"}}, "note": "These are yes or no findings as the source states them, for the method shown. Some entries that bind do so weakly or less than the wild type."}
{"molecule": "PDE6β1-313 (PDE6-specific N-terminal portion of the human rod cGMP phosphodiesterase type 6 β-subunit truncation mutant) (from UniProt P35913-1 1-313) (domain or fragment)", "values": [{"measurement": "binding", "setting": "[1]", "result": "binds"}]}
{"molecule": "CRKGPPKFKQRQTRQFKSKPPKK (peptide, UniProt P04972 24-45)", "note": "[unlabeled CysPγ24-45]", "values": [{"measurement": "binding", "setting": "[2]", "result": "binds"}]}
